Measurements as given in paper PMC5760070.
No constants are given. Whether binding was seen depends on the method and setting. Some results given as binding are weak or reduced against the parent protein; the word gives no strength.

Chains of the proteins cited; added tags and fusions are not shown.
UniProt O33269: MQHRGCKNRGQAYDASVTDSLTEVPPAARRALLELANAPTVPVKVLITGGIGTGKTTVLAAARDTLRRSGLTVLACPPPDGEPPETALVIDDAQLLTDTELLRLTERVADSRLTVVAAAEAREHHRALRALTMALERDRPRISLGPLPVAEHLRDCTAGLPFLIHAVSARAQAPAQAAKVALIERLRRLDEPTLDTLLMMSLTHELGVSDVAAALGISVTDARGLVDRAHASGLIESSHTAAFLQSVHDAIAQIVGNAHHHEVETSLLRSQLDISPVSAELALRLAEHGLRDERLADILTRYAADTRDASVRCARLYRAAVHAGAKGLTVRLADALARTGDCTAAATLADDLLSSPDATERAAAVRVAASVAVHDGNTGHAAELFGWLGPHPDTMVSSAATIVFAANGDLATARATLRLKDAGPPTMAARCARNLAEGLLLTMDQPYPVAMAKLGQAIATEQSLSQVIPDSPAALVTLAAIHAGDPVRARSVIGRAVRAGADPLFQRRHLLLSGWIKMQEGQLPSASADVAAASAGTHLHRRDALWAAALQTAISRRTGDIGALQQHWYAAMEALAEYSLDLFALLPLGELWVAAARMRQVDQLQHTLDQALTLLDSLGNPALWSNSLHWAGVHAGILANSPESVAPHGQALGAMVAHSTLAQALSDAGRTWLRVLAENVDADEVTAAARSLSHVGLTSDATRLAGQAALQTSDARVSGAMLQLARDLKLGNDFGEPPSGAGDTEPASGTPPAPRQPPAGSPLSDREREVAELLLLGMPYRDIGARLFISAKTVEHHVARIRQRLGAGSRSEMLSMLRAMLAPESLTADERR

Molecular target: Strep-tagged IniRMtb (Rv0339c, iniBAC Regulator of M. tuberculosis) (M. tuberculosis) (UniProt O33269)
Assay: SDS-PAGE and immunoblot of higher-order bands (IniR multimerization assay); both purified

## Strep-tagged IniRMtb (Rv0339c, iniBAC Regulator of M. tuberculosis) (from UniProt O33269 1-832)
  binding: binds
